For one molecule, binding results are on record in publication PMC11733159.

The experiment concerns the target T1, RNF128-Flag (in THP-1 cells) (human) (UniProt Q8TEB7).
T1 sequence: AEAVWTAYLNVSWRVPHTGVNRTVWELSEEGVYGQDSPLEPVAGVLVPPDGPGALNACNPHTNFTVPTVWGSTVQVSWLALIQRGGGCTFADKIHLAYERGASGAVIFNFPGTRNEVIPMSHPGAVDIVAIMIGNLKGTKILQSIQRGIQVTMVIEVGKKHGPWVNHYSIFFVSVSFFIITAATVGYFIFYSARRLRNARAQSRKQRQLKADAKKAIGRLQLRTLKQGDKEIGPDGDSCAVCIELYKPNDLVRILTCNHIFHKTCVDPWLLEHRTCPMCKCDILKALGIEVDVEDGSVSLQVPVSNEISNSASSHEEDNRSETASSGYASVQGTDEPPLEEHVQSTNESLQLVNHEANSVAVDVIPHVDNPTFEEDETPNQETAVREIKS
Description: affinity purification with mass spectrometry; THP-1 cells transfected with empty vector or RNF128-Flag; RIPA lysates immunoprecipitated with anti-FLAG antibody and protein A/G agarose at 4 °C; LC-MS/MS.

Results are given in words; binding and its absence hold for the method and conditions named. In cells and extracts the contact can be indirect. Here binding means that the protein was enriched with, or labelled near, the bait; the list need not be complete. Sequences can lack the tags named with a protein.

B1: S100A8 (endogenous, THP-1) (protein, UniProt P05109 1-93)
chain: MLTELEKALNSIIDVYHKYSLIKGNFHAVYRDDLKKLLETECPQYIRKKGADVWFKELDINTDGAVNFQEFLILVIKMGVAAHKKSHEESHKE
B1: the binding result is reported as “binds”.
